These are yes or no findings as the source states them, for the method shown. In cells and extracts the contact can be indirect. These calls come from enrichment with a bait or labelling near it, and not all partners need be listed.
Target: T1, tripartite motif-containing protein 10α (TRIM10α), endogenous (human (endogenous in HUDEP-2)) (UniProt Q9UDY6)
T1 sequence: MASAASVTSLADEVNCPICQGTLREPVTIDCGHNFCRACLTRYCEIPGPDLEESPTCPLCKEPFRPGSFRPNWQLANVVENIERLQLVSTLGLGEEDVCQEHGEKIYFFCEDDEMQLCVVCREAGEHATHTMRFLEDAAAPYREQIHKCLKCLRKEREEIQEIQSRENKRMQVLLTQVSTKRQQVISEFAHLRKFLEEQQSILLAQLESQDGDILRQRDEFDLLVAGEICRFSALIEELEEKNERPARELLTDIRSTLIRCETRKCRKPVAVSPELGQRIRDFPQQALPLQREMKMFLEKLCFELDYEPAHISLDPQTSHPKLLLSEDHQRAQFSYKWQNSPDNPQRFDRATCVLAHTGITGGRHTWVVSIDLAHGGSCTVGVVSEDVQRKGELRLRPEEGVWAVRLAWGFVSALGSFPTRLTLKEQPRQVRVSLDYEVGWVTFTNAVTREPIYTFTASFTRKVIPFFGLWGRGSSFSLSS
Assay: affinity purification with mass spectrometry; co-immunoprecipitation with anti-TRIM10α antibody from HUDEP-2 cells at differentiation days 0, 8 and 12; SDS-PAGE, silver staining, bands excised, tandem mass spectrometry

Chains of the proteins cited; added tags and fusions are not shown.
UniProt P69905: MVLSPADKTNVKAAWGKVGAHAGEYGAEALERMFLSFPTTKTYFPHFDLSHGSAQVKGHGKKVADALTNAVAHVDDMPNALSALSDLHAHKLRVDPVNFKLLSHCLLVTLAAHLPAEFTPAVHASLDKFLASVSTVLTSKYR
UniProt Q96Q89: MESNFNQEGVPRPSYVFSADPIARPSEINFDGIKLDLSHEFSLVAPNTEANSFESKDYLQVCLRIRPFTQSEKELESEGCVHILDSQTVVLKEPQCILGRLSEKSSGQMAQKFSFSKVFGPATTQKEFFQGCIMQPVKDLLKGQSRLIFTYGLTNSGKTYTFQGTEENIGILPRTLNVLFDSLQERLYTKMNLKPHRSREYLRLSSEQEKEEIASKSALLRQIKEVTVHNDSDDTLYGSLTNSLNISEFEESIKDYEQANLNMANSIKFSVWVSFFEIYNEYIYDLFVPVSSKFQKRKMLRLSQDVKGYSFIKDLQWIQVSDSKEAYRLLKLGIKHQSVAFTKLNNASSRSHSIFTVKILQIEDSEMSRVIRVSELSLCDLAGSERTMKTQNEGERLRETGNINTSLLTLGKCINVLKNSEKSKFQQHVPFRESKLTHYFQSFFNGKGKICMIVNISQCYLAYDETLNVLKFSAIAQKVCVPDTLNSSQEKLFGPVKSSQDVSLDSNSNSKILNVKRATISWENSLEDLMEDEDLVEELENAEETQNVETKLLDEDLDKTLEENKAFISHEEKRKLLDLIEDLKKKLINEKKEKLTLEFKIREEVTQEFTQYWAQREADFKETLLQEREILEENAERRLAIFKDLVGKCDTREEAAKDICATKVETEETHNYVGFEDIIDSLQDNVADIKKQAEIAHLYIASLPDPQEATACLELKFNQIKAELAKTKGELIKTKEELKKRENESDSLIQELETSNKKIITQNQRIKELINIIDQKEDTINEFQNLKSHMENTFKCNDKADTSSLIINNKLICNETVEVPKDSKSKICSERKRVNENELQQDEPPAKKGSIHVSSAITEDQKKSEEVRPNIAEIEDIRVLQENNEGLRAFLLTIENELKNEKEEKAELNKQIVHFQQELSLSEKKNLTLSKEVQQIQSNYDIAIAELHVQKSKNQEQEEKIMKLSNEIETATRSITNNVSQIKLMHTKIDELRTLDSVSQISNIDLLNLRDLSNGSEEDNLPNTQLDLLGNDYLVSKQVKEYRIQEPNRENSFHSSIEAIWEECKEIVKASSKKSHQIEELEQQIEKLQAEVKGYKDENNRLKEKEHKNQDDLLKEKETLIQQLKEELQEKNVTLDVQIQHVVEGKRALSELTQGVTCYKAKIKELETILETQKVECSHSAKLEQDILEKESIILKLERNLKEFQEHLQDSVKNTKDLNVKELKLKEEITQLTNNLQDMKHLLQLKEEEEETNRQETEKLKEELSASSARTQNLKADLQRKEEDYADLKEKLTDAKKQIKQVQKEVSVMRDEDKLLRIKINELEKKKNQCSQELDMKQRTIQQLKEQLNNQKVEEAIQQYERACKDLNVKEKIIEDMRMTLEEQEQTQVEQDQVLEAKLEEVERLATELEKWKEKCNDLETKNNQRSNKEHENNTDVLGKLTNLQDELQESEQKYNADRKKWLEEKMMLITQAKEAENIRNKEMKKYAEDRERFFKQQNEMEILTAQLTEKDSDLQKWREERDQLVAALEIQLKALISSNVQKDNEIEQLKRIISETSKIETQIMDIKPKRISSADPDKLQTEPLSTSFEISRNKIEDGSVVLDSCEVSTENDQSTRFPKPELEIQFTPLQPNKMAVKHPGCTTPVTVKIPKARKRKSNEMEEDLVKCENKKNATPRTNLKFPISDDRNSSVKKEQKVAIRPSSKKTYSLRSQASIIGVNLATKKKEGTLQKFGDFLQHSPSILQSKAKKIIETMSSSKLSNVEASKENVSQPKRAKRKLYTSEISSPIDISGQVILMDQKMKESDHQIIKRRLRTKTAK

Substance | binding
Hb subunit alpha (HbA), endogenous (from UniProt P69905 1-142) | binds
KIF20B, a kinesin-6 family member, endogenous (from UniProt Q96Q89 1-1820) | binds
